# Percent effect of library compounds

The values are deposited in ChEMBL (CHEMBL3988442, “University of Dundee, Small-Polar-MMV Screening Library” (2021)).

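Phenotypic screen: M. tuberculosis growth, cholesterol and DPPC medium, 4 days; the read-out is not stated. Compounds at 50 µM. Direction is inferred from retests: higher values go with more growth inhibition. Size under these conditions: about 69,000 compounds, about 370 of them at 50% or above in at least one test.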

The filed quantity is “Percent Effect” (%). The record does not define 0% and 100%; most values in the screen are far below 50% and negative numbers occur (in some assays of this library far below -100). This is an unselected part of the compounds tested. Two or more numbers in one place are separate tests of the same structure; such repeats can differ widely.

SMILES,percent effect
O=C(CN1CCC(c2ccnn2CCO)CC1)NCC1CC1,14.87%
CCN(C(=O)CNC1CCc2ncnn2C1)C1=CCCCC1 (stereo unspecified),-10.61%
Cn1nccc1CN1CCOC(c2ccc(-c3cncnc3)cn2)C1 (stereo unspecified),-8.404% & 0.8841%
CC(=O)N1CCN(c2cc(-c3ccccc3)nc3c(C)c(C)nn23)CC1,-2.927%
CC(Cc1cccc(F)c1)NCc1cnc(N2CCN(C)CC2)nc1 (stereo unspecified),10.53%
Cn1cnc2c1CCN(Cc1nc(Cc3ccccc3)no1)C2,12.34%
COc1ccc(-n2cc(CNC(=O)c3cscn3)nn2)cc1,17.84%
Cn1cc(Cl)cc1C(=O)N1CCCN(Cc2nccn2C)CC1,-26.49%
CCc1cc(NC(=O)C2CCCN(C(=O)NCC(C)C)C2)[nH]n1 (stereo unspecified),-2.198%
O=C(O)C(F)(F)F.O=C(O)C(F)(F)F.[H][C@@]12CCN(c3ncc(F)cn3)[C@]1([H])CC[C@@H](C(=O)NCc1ccccn1)O2,-2.551% & -0.4187%
COc1cccc(OCCn2c(C)c(C)oc2=O)c1,-9.914%
CN(C)CCCN1CC2(CCN(C3CCCOC3)CC2)OC1=O (stereo unspecified),40.25% & 3.101%
C[C@@H]1CN(C2(C(=O)N(C)C)Cc3ccccc3C2)C[C@H](C)O1,-19.72%
COCC1(C(=O)N2CCC(c3nccn3CC3CC3)CC2)CCC1,-4.783% & -18.76%
CN(Cc1noc2c1CCCC2)C(=O)C1Cc2ccccc2CN1C (stereo unspecified),-8.096%
COCCOc1ccccc1C(=O)N(C)Cc1ncc(C)c(OC)c1C,16.88%
CNS(=O)(=O)CCCN1CCCC1c1noc(C)n1 (stereo unspecified),-10.29%
CC(Cn1cccn1)NC(=O)C1=Cc2ccccc2OC1 (stereo unspecified),-2.693%
CC(C)C(=O)Nc1cccc(C(=O)Nc2ccccn2)c1,6.594%
[H][C@]12CC[C@]([H])(CN(C(=O)Cn3c(C)cc(C)nc3=O)C1)N(CC=C(C)C)C2,2.093%
CC1CCCN(C(=O)c2cccc(CS(C)(=O)=O)c2)C1 (stereo unspecified),-10.33%
Cc1ccoc1C(=O)N1CCC(n2cc(-c3ccsc3)nn2)CC1,69.42%
[H][C@@]12CCN(c3ncccn3)C[C@]1(C(=O)NCc1ccccn1)CCO2,1.881%
Cc1oncc1C(=O)N1CCC2(CCN(Cc3ccccn3)C2=O)C1 (stereo unspecified),-20.57%
[H][C@]12CN(C(=O)C3CC3)CCN1C(=O)N(CCOC)C2,-9.277%
Cc1nc(CN2CCOC(CN(C)c3cccnn3)C2)cs1 (stereo unspecified),-14.61%
COc1cccc(O[C@H]2CCN(c3nc(C)cc(C)n3)CC[C@@H]2O)c1,-18.09% & -30.45%
Cn1c(CCNC(=O)C2CCCN(C3CCOCC3)C2)n[nH]c1=O (stereo unspecified),-4.25%
O=C(NCCC1CN(Cc2c[nH]cn2)CCO1)Nc1ccccc1 (stereo unspecified),13.98%
Cn1ccc(C(=O)N2CCCC2c2cc(CO)[nH]n2)n1 (stereo unspecified),4.459% & -13.54%
CCN1CC(O)CN(C(=O)c2cccc(C(F)(F)F)c2)CC1=O (stereo unspecified),3.553%
O=C(O)C(F)(F)F.[H][C@@]12CN(CC3CCOCC3)C[C@]1([H])C(=O)N(c1ccsc1)C2,6.558%
NC(=O)NC(=O)CNc1cccc(C(=O)c2ccccc2)c1,-21.44%
CC(C)c1nnc(CNc2nc(-c3cccnc3)nc3c2CCC3)n1C,21.21%
Cc1noc(-c2ccc(N3CCCC(C(N)=O)C3)nc2)n1 (stereo unspecified),-1.956%
NCC1CN(C(=O)c2cccc(-n3cccn3)c2)CCO1 (stereo unspecified),-2.277%
O=C(c1cscn1)N1CCC(O)(Cn2ccc3ccncc32)CC1,-11.68%
COc1ccccc1CN1CC[C@]2(C[C@@H](OC)CO2)C1.O=C(O)C(F)(F)F,2.551%
Cn1ccnc1-c1ccc(NCC2COCCO2)nn1 (stereo unspecified),-14.35%
COc1ccc(-n2ccc(C(=O)NCCN3CCCCCC3)n2)cc1,-0.9306%
COCCN1CCN(Cc2nc(-c3ccoc3)no2)CC1,2.341%
CO[C@H]1COCCN(C(=O)c2ccno2)C1,9.709%
Cc1cc(C)n(-c2cncc(N3CCN(C(=O)C(C)(C)C)CC3)n2)n1,5.967% & -2.466%
O=C(NC1CC1)c1cc(NC(=O)N2CCCC2)ccc1Cl,-23.06%
CC(C)c1nccn1C1CCCN(C(=O)c2ccnc(N(C)C)c2)C1 (stereo unspecified),4.607%

The last 4 entries again:

{"smiles": "CO[C@H]1COCCN(C(=O)c2ccno2)C1", "percent effect": 9.709}
{"smiles": "Cc1cc(C)n(-c2cncc(N3CCN(C(=O)C(C)(C)C)CC3)n2)n1", "percent effect": "5.967 & -2.466"}
{"smiles": "O=C(NC1CC1)c1cc(NC(=O)N2CCCC2)ccc1Cl", "percent effect": -23.06}
{"smiles": "CC(C)c1nccn1C1CCCN(C(=O)c2ccnc(N(C)C)c2)C1", "stereo": "stereo unspecified", "percent effect": 4.607}